Experimental findings from paper PMC12183613, “Identification of novel small molecule inhibitors of ETS transcription factors” are described below.

Data set [1] addresses T1, ETV6 ETS DNA-binding domain (EDBD) (UniProt P41212).
T1 sequence (looked up): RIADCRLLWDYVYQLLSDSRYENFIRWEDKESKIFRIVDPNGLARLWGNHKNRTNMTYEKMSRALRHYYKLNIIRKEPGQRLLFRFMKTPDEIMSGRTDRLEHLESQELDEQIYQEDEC
In words: SPR. The following applies: immobilized EDBD (CM5), DNA titrated, single-cycle kinetics, no Kd given; SPR: 25 mM HEPES pH 7.5, 100 mM NaCl, 1 mM EDTA, 1 mM beta-mercaptoethanol; recombinant protein; residues 334-452; protein details: C-terminal His6.

Data set [2] addresses T1, ETV6 ETS DNA-binding domain (EDBD). In words: NMR. The following applies: [1H,15N]-HSQC chemical shift mapping, DNA described as consensus DNA site; recombinant protein; residues 334-452; protein details: C-terminal His6.
The target of the next data set is T2, FLI1 full-length (UniProt Q01543).
T2 sequence (looked up): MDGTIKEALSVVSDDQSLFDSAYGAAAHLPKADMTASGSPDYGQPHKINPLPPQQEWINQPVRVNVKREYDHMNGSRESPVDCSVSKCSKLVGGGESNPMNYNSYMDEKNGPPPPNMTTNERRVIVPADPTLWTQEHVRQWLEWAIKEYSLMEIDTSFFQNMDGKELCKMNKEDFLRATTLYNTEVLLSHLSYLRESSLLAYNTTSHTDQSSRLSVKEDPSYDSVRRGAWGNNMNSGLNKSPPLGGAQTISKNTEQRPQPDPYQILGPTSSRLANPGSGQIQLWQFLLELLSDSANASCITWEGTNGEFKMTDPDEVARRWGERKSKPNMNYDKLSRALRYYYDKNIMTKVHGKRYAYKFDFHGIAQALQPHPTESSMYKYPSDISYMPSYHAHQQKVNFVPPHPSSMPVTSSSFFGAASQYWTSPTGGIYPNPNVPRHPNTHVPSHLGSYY
In words: pull-down. Particulars: Pull-down: 4 C, 30 min, 1 ug poly(dI/dC), 4 mM spermidine, wash in binding buffer 50 mM KCl, 10 mM HEPES pH 7.6, 5 mM MgCl2, 10 mM Tris pH 8, 0.05 mM EDTA, protein translated in vitro, residues 1-452, protein details: FLAG.

In a further data set the target is T3, ERG full-length (UniProt P11308).
T3 sequence (looked up): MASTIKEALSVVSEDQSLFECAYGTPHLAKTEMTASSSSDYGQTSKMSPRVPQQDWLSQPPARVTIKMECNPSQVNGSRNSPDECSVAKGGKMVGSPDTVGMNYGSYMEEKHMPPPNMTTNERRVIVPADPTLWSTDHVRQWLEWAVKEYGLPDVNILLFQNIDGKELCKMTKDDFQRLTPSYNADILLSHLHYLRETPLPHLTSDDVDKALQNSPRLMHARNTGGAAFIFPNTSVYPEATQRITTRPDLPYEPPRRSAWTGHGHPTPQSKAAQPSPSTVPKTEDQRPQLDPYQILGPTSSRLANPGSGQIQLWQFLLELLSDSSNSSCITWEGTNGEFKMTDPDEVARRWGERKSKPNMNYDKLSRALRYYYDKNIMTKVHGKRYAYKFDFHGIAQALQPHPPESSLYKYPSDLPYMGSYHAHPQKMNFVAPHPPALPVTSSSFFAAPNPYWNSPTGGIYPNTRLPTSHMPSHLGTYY
In words: pull-down. The following applies: Pull-down: 4 C, 30 min, 1 ug poly(dI/dC), 4 mM spermidine, wash in binding buffer 50 mM KCl, 10 mM HEPES pH 7.6, 5 mM MgCl2, 10 mM Tris pH 8, 0.05 mM EDTA, protein translated in vitro, residues 1-479, protein details: FLAG.

The target of the next data set is T4, ETV6 full-length (UniProt P41212).
T4 sequence (looked up): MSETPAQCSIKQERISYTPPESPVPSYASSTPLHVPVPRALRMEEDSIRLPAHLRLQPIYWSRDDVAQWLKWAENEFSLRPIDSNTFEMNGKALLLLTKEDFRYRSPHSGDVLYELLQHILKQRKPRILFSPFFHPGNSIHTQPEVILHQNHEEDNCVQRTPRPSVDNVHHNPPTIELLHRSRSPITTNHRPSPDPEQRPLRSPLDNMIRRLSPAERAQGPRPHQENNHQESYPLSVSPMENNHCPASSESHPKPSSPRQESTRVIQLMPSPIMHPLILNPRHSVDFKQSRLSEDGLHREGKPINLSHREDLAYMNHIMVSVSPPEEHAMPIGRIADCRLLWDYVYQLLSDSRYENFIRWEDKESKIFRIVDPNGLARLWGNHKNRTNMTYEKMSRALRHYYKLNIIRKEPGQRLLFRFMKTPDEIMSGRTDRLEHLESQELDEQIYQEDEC
In words: pull-down. The following applies: Pull-down: 4 C, 30 min, 1 ug poly(dI/dC), 4 mM spermidine, wash in binding buffer 50 mM KCl, 10 mM HEPES pH 7.6, 5 mM MgCl2, 10 mM Tris pH 8, 0.05 mM EDTA, protein translated in vitro, residues 1-452, protein details: FLAG.

Data set [3] concerns the target T1, ETV6 ETS DNA-binding domain (EDBD). In words: HTRF. Particulars: 40 nM protein, 62.5 nM biotinylated oligo; recombinant protein; residues 334-452; protein details: C-terminal His6. In general terms: In TR-FRET formats the signal depends on donor and acceptor labels being close together.
Another data set concerns JUN. In words: pull-down. Particulars: with or without 20 uM hit compounds A-D (no inhibition); Pull-down: 4 C, 30 min, 1 ug poly(dI/dC), 4 mM spermidine; wash in binding buffer 50 mM KCl, 10 mM HEPES pH 7.6, 5 mM MgCl2, 10 mM Tris pH 8, 0.05 mM EDTA; protein translated in vitro; protein details: FLAG.

For at least one entry, the source does not settle the construct or the ends of the probe. For some assays here: Weaker means in comparison with the reference protein, sequence or condition of that experiment. For some assays here: Tags and fusion partners may be left off the protein sequences shown. For some assays here: At least one verdict rests on a figure or table, not on a statement of the authors.

For the sequence “ACCGGAAGTACCGGAAGTACCGGAAGT (double strand) [3x consensus ETS oligonucleotide (SPR, NMR)]”, the binding result in data set [1] and in data set [2] was “binds” each time.

Consider “ACCGGAAGTACCGGAAGTACCGGAAGT (double strand) [3x consensus ETS oligonucleotide (biotinylated)]”, for which the binding result in the data set with FLI1 full-length (20 uM hit compounds A-D) is “binds more weakly”; in the data set with FLI1 full-length (with or without fragments Fr12, Fr18 (no detectable effect)), “binds”; with ERG full-length (20 uM hit compounds A-D) it was “binds more weakly”; with ERG full-length (no compound) it was “binds”; with ETV6 full-length (20 uM hit compounds A-D) it was “binds more weakly”; in the data set with ETV6 full-length (fragment Fr12 (significantly inhibited)), “binds more weakly”. Also, the binding result (with ETV6 full-length (no compound (DMSO)); in data set [3]) was “binds” each time.

Take “TGACTCATGAGTCAGTATGAGTCACAATGACTCACCT (double strand) [3x AP-1 oligonucleotide (biotinylated)]”: the binding result in the data set on JUN was “binds”.
